Data source: PubChem BioAssay AID504808 (Drosophila RNAi Screening Center, 2011)
Screen: 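Genes whose loss lifts activity of an E2F-responsive reporter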 (primary screen). Cell system: Drosophila S2 cells. Reagents: long dsRNA against Drosophila genes. Read-out: 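Dual luciferase plate measurements; E2F-specific signal taken as firefly over Renilla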. Direction: E2F firefly: higher = more E2F reporter activity; Renilla normaliser: higher = more normaliser reporter signal. Rule for the call: 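Called active if the normalised E2F reporter went up by over 50%; the cutoff is arbitrary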.
The screen tested about 21,000 reagents; shown is an unselected part of those that have a named target and a result. In the full data, 18 (0.084%) were called active. 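Raw counts without plate normalisation, one of two replicates; the ratio scores behind the calls were not deposited.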 Names joined by + are all predicted targets of the reagent. Not given: the amount of reagent, the time to read-out.

Silencing of kibra (GeneID 41783) [DRSC14533] resulted in: E2F firefly, rep 1 = 1.06e5; Renilla normaliser, rep 1 = 6220; inactive.
After knock-down of kibra (GeneID 41783) [DRSC16257], the record shows E2F firefly, rep 1 = 52033; Renilla normaliser, rep 1 = 5316; inactive.
CG4957 (GeneID 34374) [DRSC02793] scored E2F firefly, rep 1 = 1.59e5; Renilla normaliser, rep 1 = 5484; inactive.
After knock-down of CR15821 (GeneID 3771832) [DRSC08481], the record shows E2F firefly, rep 1 = 1.03e5; Renilla normaliser, rep 1 = 4757; inactive.
For eloF (GeneID 41211) [DRSC15162], the entry reads E2F firefly, rep 1 = 1.41e5; Renilla normaliser, rep 1 = 6009; inactive.
After knock-down of Cpr65Ax2 + Cpr65Ax1 [DRSC10341], the record shows E2F firefly, rep 1 = 1.04e5; Renilla normaliser, rep 1 = 4390; inactive.
Silencing of Cpr65Ax2 + Cpr65Ax1 [DRSC10344] resulted in: E2F firefly, rep 1 = 1.11e5; Renilla normaliser, rep 1 = 4279; inactive.
Depletion of cert (GeneID 38928) [DRSC09674] resulted in: E2F firefly, rep 1 = 75092; Renilla normaliser, rep 1 = 3948; inactive.
With knock-down of Pos (GeneID 43762) [DRSC15415], the record shows E2F firefly, rep 1 = 1.39e5; Renilla normaliser, rep 1 = 6775; inactive.
Depletion of Alk (GeneID 53425) [DRSC05918] resulted in: E2F firefly, rep 1 = 1.34e5; Renilla normaliser, rep 1 = 4670; inactive.
With knock-down of UGP (GeneID 39065) [DRSC10411], the record shows E2F firefly, rep 1 = 74748; Renilla normaliser, rep 1 = 3467; inactive.
For CG17650 (GeneID 33358) [DRSC00510], the values are E2F firefly, rep 1 = 1.59e5; Renilla normaliser, rep 1 = 5501; inactive.
With knock-down of norpA (GeneID 31376) [DRSC18806], the screen gave E2F firefly, rep 1 = 1983; Renilla normaliser, rep 1 = 860; inactive.
Depletion of mam (GeneID 36555) [DRSC05468] resulted in: E2F firefly, rep 1 = 78922; Renilla normaliser, rep 1 = 3135; inactive.
Knock-down of mam (GeneID 36555) [DRSC07648] resulted in: E2F firefly, rep 1 = 74082; Renilla normaliser, rep 1 = 3439; inactive.
Prosalpha6 (GeneID 34359) [DRSC03401] gave E2F firefly, rep 1 = 1.09e5; Renilla normaliser, rep 1 = 5591; inactive.
CG7173 (GeneID 40392) [DRSC11812] gave E2F firefly, rep 1 = 51954; Renilla normaliser, rep 1 = 3276; inactive.
Depletion of CG13251 (GeneID 40286) [DRSC11699] gave: E2F firefly, rep 1 = 1.14e5; Renilla normaliser, rep 1 = 5863; inactive.
Knock-down of cag (GeneID 36157) [DRSC07587] came out at: E2F firefly, rep 1 = 1.35e5; Renilla normaliser, rep 1 = 4349; inactive.
Silencing of Arp8 (GeneID 32769) [DRSC20059] came out at: E2F firefly, rep 1 = 1.46e5; Renilla normaliser, rep 1 = 5211; inactive.
With knock-down of Pdk1 (GeneID 38017) [DRSC08682], the record shows E2F firefly, rep 1 = 1.10e5; Renilla normaliser, rep 1 = 4144; inactive.
With knock-down of CG13114 (GeneID 34272) [DRSC02212] the results were E2F firefly, rep 1 = 1.48e5; Renilla normaliser, rep 1 = 5440; inactive.
With knock-down of CG4960 (GeneID 43115) [DRSC15684], the record shows E2F firefly, rep 1 = 1.03e5; Renilla normaliser, rep 1 = 5975; inactive.
Against Nep6 (GeneID 32234) [DRSC19877] the deposit lists E2F firefly, rep 1 = 7002; Renilla normaliser, rep 1 = 732; inactive.
CG42676 (GeneID 2768999) [DRSC08227] showed E2F firefly, rep 1 = 71339; Renilla normaliser, rep 1 = 3400; inactive.
With knock-down of CG42676 (GeneID 2768999) [DRSC08392], the screen gave E2F firefly, rep 1 = 1.02e5; Renilla normaliser, rep 1 = 4604; inactive.
Silencing of Unc-115b + p24-2 + Unc-115a [DRSC16502] gave: E2F firefly, rep 1 = 1.47e5; Renilla normaliser, rep 1 = 7671; inactive.
With knock-down of LpR1 (GeneID 2768687) [DRSC15665] the results were E2F firefly, rep 1 = 1732; Renilla normaliser, rep 1 = 1036; inactive.
With knock-down of LpR1 (GeneID 2768687) [DRSC15669], the screen gave E2F firefly, rep 1 = 1.22e5; Renilla normaliser, rep 1 = 6269; inactive.
After knock-down of LpR1 (GeneID 2768687) [DRSC15670], the screen gave E2F firefly, rep 1 = 1.19e5; Renilla normaliser, rep 1 = 6126; inactive.

Laid out differently: 2 of the entries above
gene knocked down,DRSC id,"E2F firefly, rep 1","Renilla normaliser, rep 1",activity call
cag (GeneID 36157),DRSC07587,1.35e5,4349,inactive
Arp8 (GeneID 32769),DRSC20059,1.46e5,5211,inactive
